Experimental data: PubChem BioAssay AID1508597 (Cure First, 2020)
Here is one part, drawn at random, of about 2,100 reagents tested. 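Calls flag viability under 80% in either arm, not effects specific to rucaparib; the reference for percent is not stated.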 Entries without a mark were called inactive. Some reagents were tested in more than one well and are listed for each. Reagent sequences are not shown. Not stated in the record: the 100% reference.

- Assay: 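Genes whose silencing sensitises or protects ovarian cancer cells against rucaparib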 (primary screen)
- Cells: human ovarian carcinoma lines grown from tumours: OCI-P5x (papillary serous) and OCI-C5x (clear cell)
- Knock-down reagent: siRNA pool against human genes, 1.25 pmol siRNA per well
- Duration: 72 h or 96 h, depending on the cell culture
- Challenge: rucaparib 20 µM (about IC30) or vehicle, present until read-out
- Measured: 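ATP luminescence measured at 72 or 96 h according to the culture, then normalised and expressed as percent viability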
- Reading the numbers: viability, normalised: higher = more viable cells remaining
- Call rule: 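Active when normalised viability falls below 80 percent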
- Calls: active = viability under 80%; inactive = viability 80% or more

The opening 4 records, to show the layout:
BMPR1B (bone morphogenetic protein receptor type 1B), rucaparib or vehicle Rucaparib, cell line OCI-C5x (clear cell), technical replicate 1 — viability, normalised (%) = 47.1 (active)
BMPR1B (bone morphogenetic protein receptor type 1B), rucaparib or vehicle Rucaparib, cell line OCI-C5x (clear cell), technical replicate 2 — viability, normalised (%) = 39.8 (active)
BMPR1B (bone morphogenetic protein receptor type 1B), rucaparib or vehicle Rucaparib, cell line OCI-C5x (clear cell), technical replicate 3 — viability, normalised (%) = 48.5 (active)
BMPR1B (bone morphogenetic protein receptor type 1B), rucaparib or vehicle Rucaparib, cell line OCI-P5x (serous), technical replicate 1 — viability, normalised (%) = 83.9

The listing, from the first entry:
BMPR1B (bone morphogenetic protein receptor type 1B), rucaparib or vehicle Rucaparib, cell line OCI-C5x (clear cell), technical replicate 1 — viability, normalised (%) = 47.1 (active)
BMPR1B (bone morphogenetic protein receptor type 1B), rucaparib or vehicle Rucaparib, cell line OCI-C5x (clear cell), technical replicate 2 — viability, normalised (%) = 39.8 (active)
BMPR1B (bone morphogenetic protein receptor type 1B), rucaparib or vehicle Rucaparib, cell line OCI-C5x (clear cell), technical replicate 3 — viability, normalised (%) = 48.5 (active)
BMPR1B (bone morphogenetic protein receptor type 1B), rucaparib or vehicle Rucaparib, cell line OCI-P5x (serous), technical replicate 1 — viability, normalised (%) = 83.9
BMPR1B (bone morphogenetic protein receptor type 1B), rucaparib or vehicle Rucaparib, cell line OCI-P5x (serous), technical replicate 2 — viability, normalised (%) = 75.7 (active)
BMPR1B (bone morphogenetic protein receptor type 1B), rucaparib or vehicle Rucaparib, cell line OCI-P5x (serous), technical replicate 3 — viability, normalised (%) = 86.8
BMPR1B (bone morphogenetic protein receptor type 1B), rucaparib or vehicle Vehicle, cell line OCI-C5x (clear cell), technical replicate 1 — viability, normalised (%) = 45.3 (active)
BMPR1B (bone morphogenetic protein receptor type 1B), rucaparib or vehicle Vehicle, cell line OCI-C5x (clear cell), technical replicate 2 — viability, normalised (%) = 41.9 (active)
BMPR1B (bone morphogenetic protein receptor type 1B), rucaparib or vehicle Vehicle, cell line OCI-C5x (clear cell), technical replicate 3 — viability, normalised (%) = 42.4 (active)
BMPR1B (bone morphogenetic protein receptor type 1B), rucaparib or vehicle Vehicle, cell line OCI-P5x (serous), technical replicate 1 — viability, normalised (%) = 83.8
BMPR1B (bone morphogenetic protein receptor type 1B), rucaparib or vehicle Vehicle, cell line OCI-P5x (serous), technical replicate 2 — viability, normalised (%) = 72.6 (active)
BMPR1B (bone morphogenetic protein receptor type 1B), rucaparib or vehicle Vehicle, cell line OCI-P5x (serous), technical replicate 3 — viability, normalised (%) = 85.7
MAP3K13 (mitogen-activated protein kinase kinase kinase 13), rucaparib or vehicle Rucaparib, cell line OCI-C5x (clear cell), technical replicate 1 — viability, normalised (%) = 57.6 (active)
MAP3K13 (mitogen-activated protein kinase kinase kinase 13), rucaparib or vehicle Rucaparib, cell line OCI-C5x (clear cell), technical replicate 1 — viability, normalised (%) = 37.8 (active)
MAP3K13 (mitogen-activated protein kinase kinase kinase 13), rucaparib or vehicle Rucaparib, cell line OCI-C5x (clear cell), technical replicate 2 — viability, normalised (%) = 63.3 (active)
MAP3K13 (mitogen-activated protein kinase kinase kinase 13), rucaparib or vehicle Rucaparib, cell line OCI-C5x (clear cell), technical replicate 2 — viability, normalised (%) = 62.8 (active)
MAP3K13 (mitogen-activated protein kinase kinase kinase 13), rucaparib or vehicle Rucaparib, cell line OCI-C5x (clear cell), technical replicate 3 — viability, normalised (%) = 42.2 (active)
MAP3K13 (mitogen-activated protein kinase kinase kinase 13), rucaparib or vehicle Rucaparib, cell line OCI-C5x (clear cell), technical replicate 3 — viability, normalised (%) = 69.1 (active)
MAP3K13 (mitogen-activated protein kinase kinase kinase 13), rucaparib or vehicle Rucaparib, cell line OCI-P5x (serous), technical replicate 1 — viability, normalised (%) = 67 (active)
MAP3K13 (mitogen-activated protein kinase kinase kinase 13), rucaparib or vehicle Rucaparib, cell line OCI-P5x (serous), technical replicate 1 — viability, normalised (%) = 91.1
MAP3K13 (mitogen-activated protein kinase kinase kinase 13), rucaparib or vehicle Rucaparib, cell line OCI-P5x (serous), technical replicate 2 — viability, normalised (%) = 87.6
MAP3K13 (mitogen-activated protein kinase kinase kinase 13), rucaparib or vehicle Rucaparib, cell line OCI-P5x (serous), technical replicate 2 — viability, normalised (%) = 73.4 (active)
MAP3K13 (mitogen-activated protein kinase kinase kinase 13), rucaparib or vehicle Rucaparib, cell line OCI-P5x (serous), technical replicate 3 — viability, normalised (%) = 57.2 (active)
MAP3K13 (mitogen-activated protein kinase kinase kinase 13), rucaparib or vehicle Rucaparib, cell line OCI-P5x (serous), technical replicate 3 — viability, normalised (%) = 95.7
MAP3K13 (mitogen-activated protein kinase kinase kinase 13), rucaparib or vehicle Vehicle, cell line OCI-C5x (clear cell), technical replicate 1 — viability, normalised (%) = 70.1 (active)
MAP3K13 (mitogen-activated protein kinase kinase kinase 13), rucaparib or vehicle Vehicle, cell line OCI-C5x (clear cell), technical replicate 1 — viability, normalised (%) = 137
MAP3K13 (mitogen-activated protein kinase kinase kinase 13), rucaparib or vehicle Vehicle, cell line OCI-C5x (clear cell), technical replicate 2 — viability, normalised (%) = 66.2 (active)
MAP3K13 (mitogen-activated protein kinase kinase kinase 13), rucaparib or vehicle Vehicle, cell line OCI-C5x (clear cell), technical replicate 2 — viability, normalised (%) = 59.6 (active)
MAP3K13 (mitogen-activated protein kinase kinase kinase 13), rucaparib or vehicle Vehicle, cell line OCI-C5x (clear cell), technical replicate 3 — viability, normalised (%) = 57.4 (active)
MAP3K13 (mitogen-activated protein kinase kinase kinase 13), rucaparib or vehicle Vehicle, cell line OCI-C5x (clear cell), technical replicate 3 — viability, normalised (%) = 44.5 (active)
MAP3K13 (mitogen-activated protein kinase kinase kinase 13), rucaparib or vehicle Vehicle, cell line OCI-P5x (serous), technical replicate 1 — viability, normalised (%) = 88.4
MAP3K13 (mitogen-activated protein kinase kinase kinase 13), rucaparib or vehicle Vehicle, cell line OCI-P5x (serous), technical replicate 1 — viability, normalised (%) = 54.8 (active)
MAP3K13 (mitogen-activated protein kinase kinase kinase 13), rucaparib or vehicle Vehicle, cell line OCI-P5x (serous), technical replicate 2 — viability, normalised (%) = 94.9
MAP3K13 (mitogen-activated protein kinase kinase kinase 13), rucaparib or vehicle Vehicle, cell line OCI-P5x (serous), technical replicate 2 — viability, normalised (%) = 52 (active)
MAP3K13 (mitogen-activated protein kinase kinase kinase 13), rucaparib or vehicle Vehicle, cell line OCI-P5x (serous), technical replicate 3 — viability, normalised (%) = 99.1
MAP3K13 (mitogen-activated protein kinase kinase kinase 13), rucaparib or vehicle Vehicle, cell line OCI-P5x (serous), technical replicate 3 — viability, normalised (%) = 58.2 (active)
